Measurements from “University of Dundee, Small-Polar-MMV Screening Library” (2021), ChEMBL document CHEMBL3988442.

Protein sequences, listed by entry. Tags and fused reporters are not part of them. Residues count along the entry.
UniProt P9WPC5, whole entry: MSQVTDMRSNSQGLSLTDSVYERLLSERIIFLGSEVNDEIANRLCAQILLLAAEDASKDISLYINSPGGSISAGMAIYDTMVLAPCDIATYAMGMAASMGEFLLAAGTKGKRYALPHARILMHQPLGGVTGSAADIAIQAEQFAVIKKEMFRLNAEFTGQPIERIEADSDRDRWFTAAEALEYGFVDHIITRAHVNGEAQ
UniProt P9WPC3, whole entry partner: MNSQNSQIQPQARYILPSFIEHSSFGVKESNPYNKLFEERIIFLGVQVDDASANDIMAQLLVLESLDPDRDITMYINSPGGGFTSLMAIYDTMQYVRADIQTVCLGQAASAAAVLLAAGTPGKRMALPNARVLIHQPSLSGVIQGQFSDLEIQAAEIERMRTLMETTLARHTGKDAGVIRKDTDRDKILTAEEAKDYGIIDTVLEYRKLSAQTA
UniProt P9WNZ1, whole entry: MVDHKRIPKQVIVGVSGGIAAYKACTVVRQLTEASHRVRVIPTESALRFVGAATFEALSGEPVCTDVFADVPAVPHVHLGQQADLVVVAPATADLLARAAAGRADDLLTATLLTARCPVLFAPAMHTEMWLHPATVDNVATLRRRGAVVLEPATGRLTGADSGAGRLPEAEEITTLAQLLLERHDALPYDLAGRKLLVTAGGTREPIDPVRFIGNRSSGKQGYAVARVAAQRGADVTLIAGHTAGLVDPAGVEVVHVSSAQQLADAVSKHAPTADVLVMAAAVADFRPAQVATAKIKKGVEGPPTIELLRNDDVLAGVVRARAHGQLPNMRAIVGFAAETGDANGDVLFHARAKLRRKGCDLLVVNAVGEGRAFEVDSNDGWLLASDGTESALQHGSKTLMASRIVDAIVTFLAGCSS
UniProt Q8IDJ8, 1-583: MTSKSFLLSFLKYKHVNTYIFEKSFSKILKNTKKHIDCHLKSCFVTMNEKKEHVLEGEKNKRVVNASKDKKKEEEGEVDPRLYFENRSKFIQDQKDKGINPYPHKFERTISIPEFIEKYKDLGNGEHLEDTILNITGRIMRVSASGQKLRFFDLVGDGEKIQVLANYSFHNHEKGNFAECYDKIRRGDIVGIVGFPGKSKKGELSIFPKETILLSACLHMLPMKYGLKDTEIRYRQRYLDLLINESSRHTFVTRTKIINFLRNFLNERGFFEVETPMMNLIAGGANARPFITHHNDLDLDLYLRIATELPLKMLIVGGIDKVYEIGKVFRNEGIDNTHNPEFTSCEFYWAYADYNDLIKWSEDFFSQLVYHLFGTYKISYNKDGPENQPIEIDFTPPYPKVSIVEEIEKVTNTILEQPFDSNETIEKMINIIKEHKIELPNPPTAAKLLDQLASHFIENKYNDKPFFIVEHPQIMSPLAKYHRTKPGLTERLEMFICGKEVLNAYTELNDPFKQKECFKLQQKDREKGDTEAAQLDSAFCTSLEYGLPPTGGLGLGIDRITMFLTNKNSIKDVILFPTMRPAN

A: 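Protease assay of ClpP1P2, read by the AMC dye that it sets free. Target: ClpP1P2, Mycobacterium tuberculosis (UniProt P9WPC5 and UniProt P9WPC3). Concentration: 50 µM. Higher reads as stronger inhibition, judged from the few compounds that gave an IC50. Most other retested compounds had strongly negative values. Size under these conditions: about 69,000 compounds, about 10 of them at 50% or above in at least one test.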
B: 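Enzyme assay of CoaBC with a phosphate dye (Biomol Green) read at 650 nm. Target: Coenzyme A biosynthesis protein CoaBC, Mycobacterium tuberculosis (UniProt P9WNZ1). Compounds at 30 µM. Direction is inferred from only a few compounds that gave an IC50; most scored high, so higher reads as stronger inhibition. Most strong results did not repeat in a second test. About 67,000 compounds were tested under these conditions; 0.06% (about 40) showed 50% or more at least once.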
C: 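Enzyme assay of the cytosolic lysyl-tRNA synthetase in 384-well plates, read by luminescence. Target: Lysine-tRNA ligase, Plasmodium falciparum 3D7 (UniProt Q8IDJ8). Tested at 30 µM. Direction is inferred from only a few compounds that gave an IC50; most scored high, so higher reads as stronger inhibition. Size under these conditions: about 69,000 compounds, about 49 of them at 50% or above in at least one test.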

Values are the deposited “Percent Effect”, in %. How 0% and 100% were set is not recorded. Most values in the screen are low, and negative values occur. The compounds are a random part of those screened.

structure: O=C(c1ccc(F)cc1)N1C[C@@H]2OCCN(c3ncccn3)[C@@H]2C1
A: 3.291%
B: 1.142%
C: 7.523%

structure: O=C1COC2(CCN(Cc3ccoc3)CC2)CN1c1ccccc1
A: 9.307%
B: 2.1%
C: 2.444%

structure: CSc1nc2ccsc2c(=O)n1CC(=O)NC1CCCC1
A: -2.679%
B: 4.971%
C: 4.574%

structure: Nc1ncccc1CN1CCCn2nc(CCC(=O)NC3CC3)cc2C1
A: -2.412%
B: -0.6017%
C: 6.059%

structure: CN(C)CCN(C)C[C@H]1CN2CC[C@H]1C[C@@H]2CNC(=O)Nc1ccsc1
A: -0.1441%
B: -22.35%
C: 4.954%

structure: CC(C)n1cc(C(=O)NC2CN3CCC2CC3)c2ccccc21 (stereo not given)
A: -14.36%
B: 1.515%
C: 1.382%

structure: N#Cc1cn(C2CC2)c(=O)n(CC(O)c2ccccc2F)c1=O (stereo not given)
A: 11.86%
B: -4.787%
C: 7.943%

structure: CNCCc1nc2cc(F)ccc2[nH]1
A: -22.26%
B: -9.375%
C: 7.119%

structure: CCN1CCN(C(=O)COc2ccc(CN(C)S(C)(=O)=O)cc2)CC1
A: -3.3%
B: -5.528%
C: 2.556%

structure: Cc1cc(N2CCOC(C(F)(F)F)C2)nc(-c2ccccc2)n1 (stereo not given)
A: -2.278%
B: 5.392%
C: 2.883%

structure: COc1ccc(CNCC2CN(C3CC3)CCO2)cc1OC (stereo not given)
A: -12.43%
B: 3.753%
C: -0.5286%

structure: COC(=O)CN1Cc2cc3c(cc2NCCC1=O)OCO3
A: 6.983%
B: 2.086%
C: 3.154%

structure: CCC(=O)N(CC)C(c1cccnc1)c1ccc2c(c1)CCO2 (stereo not given)
A: -19.78%
B: 1.818%
C: 4.25%

structure: Cc1ccc(NC2CCN(C(=O)CC3CCCO3)CC2)nn1 (stereo not given)
A: 0.8738%
B: 2.491%
C: -4.335%

structure: O=c1cc(CNS(=O)(=O)C2CC2)nc2n1CCCNC2
A: -1.825%
B: 8.402%
C: 5.04%

structure: CC(C)C(N)CNS(=O)(=O)Cc1cccc2cccnc12 (stereo not given)
A: 4.22%
B: -13.99%
C: -0.8191%

structure: CC(=O)N1CCCN(C(=O)Cc2ccc3c(c2)OCO3)CC1
A: -12.69%
B: 0.7317%
C: 1.161%

structure: Cc1nn(C)c2cnn(C(C)C(=O)NCc3cccnc3)c12 (stereo not given)
A: -1.971%
B: 6.864%
C: 3.79%

structure: Cc1ncc(CNC(=O)N(C)C2CCN(c3ccccc3)C2=O)s1 (stereo not given)
A: 1.46%
B: 2.394%
C: 2.098%

structure: O=C(NCCNc1ncccn1)NCCc1c(F)cccc1F
A: 10.04%
B: 13.89%
C: 6.507%

structure: Cc1ccc(S(=O)(=O)Cc2nnc(C)n2C)cc1
A: -9.186%
B: 17.39%
C: 5.593%

structure: Cc1cc(C)n(C2CN(c3ncnc4[nH]ccc34)C2)n1
A: 1.147%
B: 6.25%
C: 36.27%

structure: CCN(CC)S(=O)(=O)N1CC[C@H](c2ccccc2)[C@@H]2[C@H]1CCCCN2C
A: -3.254%
B: 2.098%
C: 4.195%

structure: O=C(C1CCOC1)N1CCN(CCn2cccn2)c2ncccc2C1 (stereo not given)
A: -4.385%
B: 1.728%
C: 2.298%

structure: CC(C)Cc1noc(CN2CCCC(Cn3cncn3)C2)n1 (stereo not given)
A: 10.58%
B: 10.12%
C: 1.744%

structure: CCN(C(=O)CCc1ccc2[nH]ccc2c1)C1CC(=O)NC1=O (stereo not given)
A: -18.25%
B: 3.883%
C: 3.052%

structure: O=C(c1ccc(O)nc1)N1CCN(C(=O)c2ccc(F)cc2F)CC1
A: -2.843%
B: -0.2457%
C: 4.326%

structure: NC(=O)C(NCCc1ccc(Cl)s1)c1ccccc1 (stereo not given)
A: 0.4123%
B: 1.914%
C: 4.006%

structure: O=C(c1cccnc1)N1CCC(Oc2cccc(C(F)(F)F)c2)CC1
A: 1.388%
B: 2.58%
C: 6.045%

structure: CN(Cc1ncc[nH]1)CC1CCOc2ccccc2C1 (stereo not given)
A: 1.302%
B: 2.236%
C: 3.047%

Repeated from the top, 2 entries:

* O=C(c1ccc(F)cc1)N1C[C@@H]2OCCN(c3ncccn3)[C@@H]2C1 : A: 3.291%; B: 1.142%; C: 7.523%
* O=C1COC2(CCN(Cc3ccoc3)CC2)CN1c1ccccc1 : A: 9.307%; B: 2.1%; C: 2.444%